In PubChem BioAssay AID2685 (National Center for Advancing Translational Sciences (NCATS), 2010) one finds cell number change and AC50 data, which are given here for 40 compounds.

The list shows a part of the results. The main result of the screen is listed elsewhere. These columns were measured beside it and carry no call. The list favours compounds with an active or inconclusive main result. The note in brackets gives the kind of curve behind each potency; many fits are weak.

A short description of this assay: qHTS Assay for Lipid Storage Modulators in Drosophila S3 Cells.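 On cell number change: cells counted by Cell Tracker Red CMTPX staining in the red channel.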 To be noted: BODIPY lipid droplet fluorescence, 18-24 h; for cell number change: measured here: cell count max response, cells fed with added oleic acid. Summed up: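 Drosophila S3 cells loaded with oleic acid (400 uM, as added) and compounds at several concentrations; lipid droplets imaged by 488-nm laser-scanning cytometry, 500–530 nm intensity and object ratio to cell channel. Percent activity normalized to 20 uM Triacsin C.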
Background: qHTS replaces the single test concentration by a dilution series.

The mark [1] stands for this setting: measured here: lipid fluorescence (Fed channel) AC50, cells fed with added oleic acid.
Where [2] appears, read: measured here: cell number channel AC50, cells fed with added oleic acid.

By AC50 is commonly meant the concentration at which the activity in the assay is half-maximal. A lower AC50 goes with activity at low concentration. Take `CCNc1ccc(C(=O)OCC(=O)NCc2ccccc2Cl)cc1[N+](=O)[O-]`: the cell number change was -27.8%. Further, the AC50 under setting [1] is 29.1 µM [falling, single point].
Turning to `COc1ccc2cc(C#N)c(SCC(=O)N3CCCC3)nc2c1`, the AC50 under setting [2] is 4.61 µM [rising, single point].
With `Cc1ccc(NC(=O)CCC(=O)NNC(=O)COc2ccccc2)c(C)c1`, the cell number change was 53.8%. Further, under setting [2], the AC50 is 18.4 µM [rising, single point]. For the same compound, the AC50 under setting [1] was 1.16 µM [falling, single point].
`Cc1nnsc1C(=O)Nc1ccccc1Cl`: the cell number change is -13%.
Turning to `O=c1[nH]c(N2CCN(c3ccccc3)CC2)nc2c1CCCC2`, the cell number change was 0.926%. Moreover, the AC50 under setting [1] was 0.116 µM [falling, full curve, poor fit].
On to `O=c1n(Cc2ccc(F)cc2)nc2n1-c1ccccc1SC2`, for which the cell number change came out at 19.2%. Besides, the AC50 under setting [1] was 0.82 µM [rising, partial curve, poor fit].
For the compound `CCOc1ccc2[nH]c3c(NCCO)ncnc3c2c1`, under setting [1], the AC50 was 0.13 µM [falling, full curve, poor fit].
Regarding `c1ccc(CCNCCCOc2cccc3ccccc23)cc1`, the cell number change is -4.11%. Besides, the AC50 under setting [1] was 29.1 µM [rising, single point].
Regarding `Cc1cccc(NC(=O)c2c(C)cc(=O)oc2C)n1`, the AC50 under setting [1] is 7.31 µM [falling, partial curve].
Turning to `CC(=O)C1=C(O)C(=O)N(c2ccc(O)cc2)C1c1cccc(F)c1` (stereo not given), the cell number change worked out at 57%. The AC50 under setting [2] was 9.2 µM [rising, partial curve].
For `CCOc1cc(C2C3=C(CCCC3=O)N(CCC(=O)O)C3=C2C(=O)CCC3)ccc1OS(=O)(=O)c1ccc(C)cc1`, the cell number change is -10.7%. Moreover, the AC50 under setting [1] is 0.82 µM [rising, full curve, poor fit].
On to `c1cc(-c2nn[nH]n2)ccc1CN1CCCCC1`, for which the AC50 was 6.51 µM [falling, single point] under setting [2] and 16.4 µM [falling, partial curve] under setting [1].
As for `CC(C)(C)N(Cc1ccccc1)C(=O)COC(=O)CSc1ccc([N+](=O)[O-])cc1`, the cell number change is -0.961%.
Consider `Cc1ccccc1NS(=O)(=O)c1ccc(C(=O)N2CCC2)cc1`, for which the cell number change is -39.3%. Moreover, under setting [2], the AC50 is 3.26 µM [falling, full curve]. In addition, the AC50 under setting [1] is 6.51 µM [falling, single point].
Turning to `O=C(CSc1nccc(=O)[nH]1)c1ccccc1Br`, the AC50 is, setting by setting: under setting [2], 1.46 µM [rising, partial curve]; under setting [1], 0.411 µM [rising, partial curve, poor fit].
Consider `CCc1cc(-c2n[nH]c(=S)n2CC)cs1`, for which the cell number change was 0.988%. In addition, under setting [1], the concentration at half-maximal activity (AC50) was 6.51 µM [rising, full curve].
Consider `OC(CNCCc1ccc(Cl)cc1Cl)COc1ccccc1` (stereo not given), for which the cell number change is -34.5%.
Regarding `C=C(C)c1cccc(C(C)(C)NC(=O)N2CCN(CC(N)=O)CC2)c1`, the cell number change is -13.9%. In addition, the concentration at half-maximal activity (AC50) under setting [1] was 29.1 µM [falling, partial curve, poor fit].
`COc1cccc(-c2ncc3ccccc3c2COC(=O)N(C)C)c1`: the cell number change was -11.8%. Moreover, the AC50 under setting [1] was 0.092 µM [falling, single point].
Consider `Cc1ccc(C2C3=C(NCCN=C3c3ccccc3)C(=O)N2c2ccccc2)cc1` (stereo not given), for which the cell number change is -70.4%. For the same compound, under setting [2], the AC50 was 23.1 µM [falling, partial curve, poor fit]. For the same compound, the AC50 under setting [1] is 1.64 µM [falling, full curve].
Take `Cc1ccc(-c2cc(NC(=O)CSc3n[nH]c(N)n3)n(-c3ccccc3)n2)cc1`: the AC50 runs as follows: under setting [2], 0.146 µM [rising, full curve, poor fit]; under setting [1], 0.259 µM [rising, full curve].
With `CCOCC(=O)Nc1nnc(SCCOC)s1`, the cell number change is -8.99%. Moreover, the AC50 under setting [1] was 1.16 µM [falling, full curve].
As to `O=C(Nc1ccc(F)cc1F)N1CCCN(c2ccc(C(F)(F)F)cn2)CC1`, the cell number change came to 23.6%. In addition, the AC50 under setting [1] was 14.6 µM [rising, partial curve, poor fit].
On to `CC(=O)c1ccc(N2CCN(C(=O)c3n[nH]c4ccccc34)CC2)cc1`, for which, under setting [2], the concentration at half-maximal activity (AC50) was 2.91 µM [rising, partial curve].
As to `CN1CCN(C(=O)c2ccc(N3CCCC3=O)cc2)CC1`, the cell number change was -40.5%. Also, under setting [2], the AC50 is 5.17 µM [falling, full curve].
Take `COC(=O)c1cc(=O)nc2sc(-c3ccccc3)nn12`: the cell number change is -3.51%.
Regarding `CCOc1ccc(CCNC(=O)c2cccc(N3CCCC3=O)c2)cc1OCC`, the AC50 under setting [2] is 2.31 µM [falling, partial curve].
As for `N#C/C(=C(/O)COC(=O)CCCNC(=O)c1ccc(Cl)cc1)c1nc2ccccc2[nH]1`, the cell number change stood at 51.2%. Besides, the AC50 under setting [2] is 6.51 µM [rising, partial curve, poor fit].
As for `O=C(/C=C/c1ccccc1)NC(NC(=S)Nc1ccc(Cl)cc1Cl)C(Cl)(Cl)Cl` (stereo not given), the cell number change is -27.9%.
The same measure, in the same setting: the value for `CC1CCCCC1NC(=O)CN1C(=O)NC(C)(c2cc(F)ccc2F)C1=O` (stereo not given) was 11.1%.
`Cc1ccc(SC(C)C(=O)Nc2cccnc2)cc1` (stereo not given): the cell number change is -24.1%. Further, the AC50 under setting [1] is 0.326 µM [falling, full curve, poor fit].
In the case of `CC/C(=N/NS(=O)(=O)c1ccc(Cl)cc1)c1ccc(O)cc1`, the cell number change was -7.91%. Also, the AC50 under setting [1] is 0.82 µM [falling, full curve, poor fit].
Take `COc1ccc(NC(=O)c2cccc(N3C(=O)c4ccc(C(=O)Nc5ccc(OC)c(O)c5)cc4C3=O)c2)cc1O`: the cell number change came to 33.5%. The AC50 under setting [2] was 2.91 µM [rising, full curve, poor fit].
For the compound `O=C(CNS(=O)(=O)c1ccccc1)OCC(=O)c1ccc([N+](=O)[O-])cc1`, the cell number change was -16.2%. In addition, under setting [1], the AC50 was 7.31 µM [falling, partial curve, poor fit].
In the case of `O=C(NCCCn1ccnc1)c1ccc(S(=O)(=O)Nc2ccccc2)cc1`, the cell number change stood at 23.7%. In addition, under setting [2], the AC50 is 0.00411 µM [rising, full curve, poor fit].
In the case of `CSc1ncccc1C(=O)NC1CCCCCCC1`, the cell number change was found to be 18.2%. Moreover, the AC50 under setting [1] is 23.1 µM [rising, single point].
Regarding `COC(=O)c1ccc2c(=O)n(CC3CCCO3)c(SCC(=O)Nc3ccccc3OC)nc2c1` (stereo not given), the cell number change amounted to 3.55%. In addition, the AC50 under setting [1] was 4.11 µM [falling, single point].
In the case of `O=C(Nc1ccc2c(c1)OCCO2)c1cnn(-c2ccccc2)n1`, the cell number change was -7.27%. In addition, the AC50 under setting [1] was 2.06 µM [rising, partial curve].
On to `CCC(=O)c1ccc(OCC(=O)O)c(OC)c1`, for which the cell number change was 4.14%.
Regarding `NC(=O)C1CCN(C(=O)/C(=C/c2ccco2)NC(=O)c2ccccc2)CC1`, the cell number change is -8.57%.
